Numbering of substitutions follows the chain as printed. No constants are given. Whether binding was seen depends on the method and setting. Some entries that bind do so weakly or less than the wild type.
Legend:
[1] = biological target: T1, human HSPB6 C46S/E116C double mutant (human) (UniProt O14558); assay: cross-linking; disulfide cross-linking of mixtures: 50 μM of each protein in 50 mM sodium phosphate pH 7.5, 100 mM NaCl, 5 mM DTT overnight at 37 °C, then dialysis without DTT at 20 °C for 24 h; non-reducing SDS-PAGE; both purified
T1 sequence: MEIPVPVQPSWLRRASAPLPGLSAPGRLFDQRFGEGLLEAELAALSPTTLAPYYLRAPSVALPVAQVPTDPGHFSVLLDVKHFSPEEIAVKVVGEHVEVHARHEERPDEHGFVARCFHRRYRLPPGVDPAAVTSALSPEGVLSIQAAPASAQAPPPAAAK

Protein sequences, listed by entry. Tags and fused reporters are not part of them. Lines headed by an entry give the natural chain unless they say otherwise; changes in a name come on top.
UniProt P04792: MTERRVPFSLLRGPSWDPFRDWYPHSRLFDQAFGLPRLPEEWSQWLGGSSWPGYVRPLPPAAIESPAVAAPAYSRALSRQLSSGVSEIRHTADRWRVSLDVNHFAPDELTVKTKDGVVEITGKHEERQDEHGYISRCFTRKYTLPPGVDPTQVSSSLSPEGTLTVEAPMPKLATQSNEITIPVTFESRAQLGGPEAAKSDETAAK

human HSPB1 S135F mutant = biological target: T2, human HSPB1 S135F mutant (human, UniProt P04792 1-205, S135F); assay: cross-linking; disulfide cross-linking of each HSPB1 variant alone: dialysis at 20 °C for 24 h against 50 mM sodium phosphate pH 7.5, 100 mM NaCl with or without 5 mM DTT; non-reducing SDS-PAGE; both purified
T2 construct: HSPB1 (HSP27), human, with the autosomal dominant Charcot-Marie-Tooth mutation S135F; Disease mutation found in patients; Probably the whole protein; SUMO carrier probably removed (subtractive IMAC); The abstract once prints R135F for this mutant; source: recombinant (pET23b or pETHSUK construct), expressed as described earlier; purified (ammonium sulfate fractionation, anion-exchange, SEC; or …)

[2] = biological target: T3, human HSPB6, wild type (human) (UniProt O14558); assay: condition: only preincubated at 4 °C (30 μM per monomer of each); SEC; equimolar mixture, 30 μM per monomer of each sHSP in buffer S, preincubated at 4 °C for 1 hr, then Superdex 200 HR; both purified
T3 sequence: T1 sequence with S46C, C116E

human HSPB1 R136W mutant (from UniProt P04792 1-205)
binding [1]: no binding (tested: 50 μM of each protein)

human HSPB1 S135F mutant (from UniProt P04792 1-205)
binding (human HSPB1 S135F mutant): binds weakly

human small heat shock protein HSPB1, wild type (from UniProt P04792 1-205)
binding [2]: no binding
